PubChem BioAssay AID1159578 | Peter MacCallum Cancer Centre, 2015
Purpose: 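siRNA pools altering how lymphatic endothelial cells close a scratch wound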 (primary screen). System: human lymphatic endothelial cells. Reagents: siRNA pool against human genes, 40 nM. Time to read-out: 48 h after transfection. Measured: 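Cells stained with dye and imaged after a scratch; covered wound area and nuclei counted, duplicates averaged, migration set against mock wells and turned into a robust z-score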. Reading the numbers: migration robust z-score: higher = faster migration into the scratch; nuclei per well: higher = more cells in the well. Call rule: 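Migration changed when robust z exceeds 2 or falls below -2 and mean nuclei number is at least 3300; otherwise not called changed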. Meaning of the calls: active = migration changed; inactive = no migration change, or too few cells.
Here is a random part of about 18,000 reagents tested. Over the whole deposit, about 1,030 (5.7%) got an active call. 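Inactive calls also include pools with fewer than 3300 nuclei, whose migration was not assessed.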 The raw values are shown without normalisation. Not all columns of the deposit are shown.

no.	target gene	migration robust z-score	nuclei per well, duplicate mean	Outcome
1	DYNLT2 (GeneID 6991)	0.33	6308	inactive
2	H2AC8 (GeneID 3012)	-0.9	5256	inactive
3	VCY (GeneID 9084)	-0.32	5216	inactive
4	CTSL (GeneID 1514)	0.52	5372	inactive
5	TLR3 (GeneID 7098)	-0.78	4512	inactive
6	DEPDC5 (GeneID 9681)	0.77	6558	inactive
7	TMTC2 (GeneID 160335)	-0.68	6138	inactive
8	RBMY1E (GeneID 378950)	-0.55	5894	inactive
9	IL36R (GeneID 8808)	0.65	5822	inactive
10	B3GALT5 (GeneID 10317)	-1.03	3574	inactive
11	ADRA2C (GeneID 152)	-0.7	5409	inactive
12	LZTR1 (GeneID 8216)	-0.44	5720	inactive
13	HTR5A (GeneID 3361)	1.04	6956	inactive
14	HIC2 (GeneID 23119)	0.14	5045	inactive
15	MYL4 (GeneID 4635)	-2.44	4510	active
16	PARP11 (GeneID 57097)	2.96	5626	active
17	PYGO2 (GeneID 90780)	0.17	6371	inactive
18	BORCS8-MEF2B (GeneID 4207)	-0.68	4362	inactive
19	RNF157 (GeneID 114804)	0.07	3346	inactive
20	DPP8 (GeneID 54878)	-0.5	5150	inactive
21	RHOBTB3 (GeneID 22836)	3.13	5012	active
22	ZNF668 (GeneID 79759)	-0.22	6200	inactive
23	NSF (GeneID 4905)	0.52	5580	inactive
24	NEURL1 (GeneID 9148)	0.78	6693	inactive
25	MAPK4 (GeneID 5596)	-5.86	1436	inactive
26	IGFBP1 (GeneID 3484)	-0.09	5828	inactive
27	SRSF9 (GeneID 8683)	0.54	5734	inactive
28	IFT74 (GeneID 80173)	0.99	5644	inactive
29	DNAH1 (GeneID 25981)	-1.17	5568	inactive
30	NMNAT3 (GeneID 349565)	0.02	3998	inactive
31	GJA8 (GeneID 2703)	0.83	6108	inactive
32	FOXS1 (GeneID 2307)	0.05	4666	inactive
33	ARRDC5 (GeneID 645432)	0.08	6005	inactive
34	SNN (GeneID 8303)	0.25	5146	inactive
35	SLC35C1 (GeneID 55343)	-2.21	5096	active
36	C2orf66 (GeneID 401027)	-0.84	4263	inactive
37	HNRNPL (GeneID 3191)	-0.17	5412	inactive
38	HNF4A (GeneID 3172)	0.44	6271	inactive
39	KLHDC3 (GeneID 116138)	2.43	6354	active

Part of the list above in another layout:
VCY (GeneID 9084) → migration robust z-score: -0.32; nuclei per well, duplicate mean: 5216; Outcome: inactive
CTSL (GeneID 1514) → migration robust z-score: 0.52; nuclei per well, duplicate mean: 5372; Outcome: inactive
TLR3 (GeneID 7098) → migration robust z-score: -0.78; nuclei per well, duplicate mean: 4512; Outcome: inactive
DEPDC5 (GeneID 9681) → migration robust z-score: 0.77; nuclei per well, duplicate mean: 6558; Outcome: inactive
TMTC2 (GeneID 160335) → migration robust z-score: -0.68; nuclei per well, duplicate mean: 6138; Outcome: inactive
